{"source": "the supplement of paper PMC4635364", "key": {"ReNCell VM [1]": {"test_system": "ReNCell VM", "assay": "neuronal differentiation score (DCX+ cell fraction vs untreated, manual image score) (score (-3 to 3)); higher = more neuronal differentiation", "conditions": "2 uM, 2 weeks"}, "ReNCell VM [2]": {"test_system": "ReNCell VM", "assay": "dopaminergic neuron differentiation score (TH+ cell fraction vs untreated, manual image score) (score (0 to 3)); higher = more TH+ dopaminergic neuron differentiation", "conditions": "2 uM, 4 weeks, BDNF 10 ng/ml + GDNF 10 ng/ml"}}, "note": "Where a name gives a salt, the structure may show the parent alone. This is one part of the list. Single values are uncertain here, since repeats match poorly.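 Human fetal ventral-midbrain neural progenitor line ReNCell VM, differentiated without mitogens. Images stained for doublecortin (early neurons) or tyrosine hydroxylase (dopaminergic neurons) were scored by blinded raters against untreated wells (0 = no change). Repeats and both raters were averaged, and compounds averaging 2 or higher were picked as hits for retesting.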", "data": [{"smiles": "CN1CCC2(C)c3cc(O)ccc3N(C)C12", "note": "(single isomer, unassigned; (-)) [(-)-Eseroline fumarate salt]", "values": [{"measurement": "neuronal differentiation score", "setting": "ReNCell VM [1]; library: Prestwick", "value": "inactive: 0"}, {"measurement": "dopaminergic neuron differentiation score", "setting": "ReNCell VM [2]; library: Prestwick", "value": "inactive: 0"}]}, {"smiles": "CO[C@H]1[C@H](O)[C@H](O[C@H]2CC[C@@]3(C=O)[C@H](CC[C@@H]4[C@@H]3CC[C@]3(C)[C@@H](C5=CC(=O)OC5)CC[C@]43O)C2)O[C@@H](C)[C@@H]1O", "values": [{"measurement": "neuronal differentiation score", "setting": "ReNCell VM [1]; library: Spectrum", "value": "inactive: 0"}, {"measurement": "dopaminergic neuron differentiation score", "setting": "ReNCell VM [2]; library: Spectrum", "value": "inactive: 0"}]}, {"smiles": "CCCN1CCO[C@@H]2c3cc(O)ccc3OC[C@H]21", "values": [{"measurement": "neuronal differentiation score", "setting": "ReNCell VM [1]; library: Tocriscreen", "value": "inactive: 0"}, {"measurement": "dopaminergic neuron differentiation score", "setting": "ReNCell VM [2]; library: Tocriscreen", "value": "inactive: 0"}]}, {"smiles": "COc1cc2ccc(=O)oc2c2ccoc12", "values": [{"measurement": "neuronal differentiation score", "setting": "ReNCell VM [1]; library: Spectrum", "value": "inactive: 0"}, {"measurement": "dopaminergic neuron differentiation score", "setting": "ReNCell VM [2]; library: Spectrum", "value": "inactive: 0"}]}, {"smiles": "C=CCN1CC[C@]23CCCC[C@H]2[C@H]1Cc1ccc(O)cc13", "note": "[Levallorphan tartrate]", "values": [{"measurement": "neuronal differentiation score", "setting": "ReNCell VM [1]; library: LOPAC", "value": "inactive: 0"}, {"measurement": "dopaminergic neuron differentiation score", "setting": "ReNCell VM [2]; library: LOPAC", "value": "inactive: 0"}]}, {"smiles": "N#C/C(=C\\c1cccc(O)c1)C(=O)O", "note": "[alpha-CYANO-3-HYDROXYCINNAMIC ACID]", "values": [{"measurement": "neuronal differentiation score", "setting": "ReNCell VM [1]; library: Spectrum", "value": "inactive: 0"}, {"measurement": "dopaminergic neuron differentiation score", "setting": "ReNCell VM [2]; library: Spectrum", "value": "inactive: 0"}]}, {"smiles": "COC(=O)C(c1ccccc1)C1CCCCN1", "note": "(stereo unspecified)", "values": [{"measurement": "neuronal differentiation score", "setting": "ReNCell VM [1]; library: Spectrum", "value": "inactive: 0"}, {"measurement": "dopaminergic neuron differentiation score", "setting": "ReNCell VM [2]; library: Spectrum", "value": "inactive: 0"}]}, {"smiles": "N=C(NCCC[C@H](N)C(=O)O)N[N+](=O)[O-]", "note": "[NG-Nitro-L-arginine]", "values": [{"measurement": "neuronal differentiation score", "setting": "ReNCell VM [1]; library: LOPAC", "value": "inactive: 0"}, {"measurement": "dopaminergic neuron differentiation score", "setting": "ReNCell VM [2]; library: LOPAC", "value": "inactive: 0"}]}, {"smiles": "CNC(C)[C@H](O)c1ccccc1", "note": "(stereo partly specified)", "values": [{"measurement": "neuronal differentiation score", "setting": "ReNCell VM [1]; library: Spectrum", "value": "inactive: 0"}, {"measurement": "dopaminergic neuron differentiation score", "setting": "ReNCell VM [2]; library: Spectrum", "value": "inactive: 0"}]}, {"smiles": "CC[C@@]1(O)C(=O)OCc2c1cc1n(c2=O)Cc2cc3ccccc3nc2-1", "note": "[Camptothecin]", "values": [{"measurement": "neuronal differentiation score", "setting": "ReNCell VM [1]; library: Tocriscreen", "value": "inactive: 0"}, {"measurement": "dopaminergic neuron differentiation score", "setting": "ReNCell VM [2]; library: Tocriscreen", "value": "inactive: 0"}]}, {"smiles": "O=c1c(O)c(-c2ccc(O)c(O)c2)oc2c(O)c(O)cc(O)c12", "values": [{"measurement": "neuronal differentiation score", "setting": "ReNCell VM [1]; library: Spectrum", "value": "inactive: 0"}, {"measurement": "dopaminergic neuron differentiation score", "setting": "ReNCell VM [2]; library: Spectrum", "value": "inactive: 0"}]}, {"smiles": "C[C@]12COC(=O)C[C@@H]1CC[C@@H]1[C@@H]2CC[C@@]2(C)[C@H]1CC[C@]2(C)O", "note": "[Oxandrolone]", "values": [{"measurement": "neuronal differentiation score", "setting": "ReNCell VM [1]; library: Prestwick", "value": "inactive: 0"}, {"measurement": "dopaminergic neuron differentiation score", "setting": "ReNCell VM [2]; library: Prestwick", "value": "inactive: 0"}]}, {"smiles": "CN(C)C(=O)Oc1cc(OC(=O)N(C)C)cc(C(O)CNC(C)(C)C)c1", "note": "(stereo unspecified)", "values": [{"measurement": "neuronal differentiation score", "setting": "ReNCell VM [1]; library: Spectrum", "value": "inactive: 0"}, {"measurement": "dopaminergic neuron differentiation score", "setting": "ReNCell VM [2]; library: Spectrum", "value": "inactive: 0"}]}, {"smiles": "C=C[C@H]1CN2CC[C@H]1C[C@H]2[C@H](O)c1ccnc2ccccc12", "note": "[(-)-Cinchonidine]", "values": [{"measurement": "neuronal differentiation score", "setting": "ReNCell VM [1]; library: Phytochemical", "value": "inactive: 0"}, {"measurement": "dopaminergic neuron differentiation score", "setting": "ReNCell VM [2]; library: Phytochemical", "value": "inactive: 0"}]}, {"smiles": "COP(=O)(OC)C(O)C(Cl)(Cl)Cl", "note": "(stereo unspecified) [Trichlorfon]", "values": [{"measurement": "neuronal differentiation score", "setting": "ReNCell VM [1]; library: Prestwick", "value": "inactive: 0"}, {"measurement": "dopaminergic neuron differentiation score", "setting": "ReNCell VM [2]; library: Prestwick", "value": "inactive: 0"}]}, {"smiles": "C[C@]12CC[C@H](O)C[C@@H]1CC[C@@H]1[C@@H]2CC[C@]2(C)C(=O)CC[C@@H]12", "values": [{"measurement": "neuronal differentiation score", "setting": "ReNCell VM [1]; library: Spectrum", "value": "inactive: 0"}, {"measurement": "dopaminergic neuron differentiation score", "setting": "ReNCell VM [2]; library: Spectrum", "value": "inactive: 0"}]}, {"smiles": "O=C(O)C1Cc2[nH]cnc2C(c2cccnc2)N1", "note": "(stereo unspecified)", "values": [{"measurement": "neuronal differentiation score", "setting": "ReNCell VM [1]; library: Natural", "value": "inactive: 0"}, {"measurement": "dopaminergic neuron differentiation score", "setting": "ReNCell VM [2]; library: Natural", "value": "inactive: 0"}]}, {"smiles": "C[C@@H](N)Cc1cnc[nH]1", "note": "[Histamine, R(-)-alpha-methyl-, dihydrochloride]", "values": [{"measurement": "neuronal differentiation score", "setting": "ReNCell VM [1]; library: LOPAC", "value": "inactive: 0"}, {"measurement": "dopaminergic neuron differentiation score", "setting": "ReNCell VM [2]; library: LOPAC", "value": "inactive: 0"}]}, {"smiles": "CC1C=CC=CCCC=CC=CC=CC=CC(OC2OC(C)C(O)C(N)C2O)CC2OC(O)(CC(O)C(O)CCC(O)CC(O)CC(O)CC(=O)OC(C)C(C)C1O)CC(O)C2C(=O)O", "note": "(stereo unspecified)", "values": [{"measurement": "neuronal differentiation score", "setting": "ReNCell VM [1]; library: Spectrum", "value": "inactive: 0"}, {"measurement": "dopaminergic neuron differentiation score", "setting": "ReNCell VM [2]; library: Spectrum", "value": "inactive: 0"}]}, {"smiles": "Cn1cc(C(=O)C(=O)N[C@H]2CN3CCC2CC3)c2ccccc21", "values": [{"measurement": "neuronal differentiation score", "setting": "ReNCell VM [1]; library: Tocriscreen", "value": "inactive: 0"}, {"measurement": "dopaminergic neuron differentiation score", "setting": "ReNCell VM [2]; library: Tocriscreen", "value": "inactive: 0"}]}, {"smiles": "O=C1CCO1", "values": [{"measurement": "neuronal differentiation score", "setting": "ReNCell VM [1]; library: Spectrum", "value": "inactive: 0"}, {"measurement": "dopaminergic neuron differentiation score", "setting": "ReNCell VM [2]; library: Spectrum", "value": "inactive: 0"}]}, {"smiles": "CCCn1c(=O)c2[nH]c(C3CCCC3)nc2n(CCCOC(=O)c2ccc(S(=O)(=O)F)cc2)c1=O", "values": [{"measurement": "neuronal differentiation score", "setting": "ReNCell VM [1]; library: LOPAC", "value": "inactive: -1"}, {"measurement": "dopaminergic neuron differentiation score", "setting": "ReNCell VM [2]; library: LOPAC", "value": "inactive: 0"}]}, {"smiles": "CC[N+]1(C)CCCC(OC(=O)C(O)(c2ccccc2)c2ccccc2)C1", "note": "(stereo unspecified) [Pipenzolate bromide]", "values": [{"measurement": "neuronal differentiation score", "setting": "ReNCell VM [1]; library: Prestwick", "value": "inactive: 0"}, {"measurement": "dopaminergic neuron differentiation score", "setting": "ReNCell VM [2]; library: Prestwick", "value": "inactive: 0"}]}, {"smiles": "COc1ccc2c(c1)c(CCN1CCOCC1)c(C)n2C(=O)c1cccc(Cl)c1Cl", "values": [{"measurement": "neuronal differentiation score", "setting": "ReNCell VM [1]; library: Tocriscreen", "value": "inactive: 0"}, {"measurement": "dopaminergic neuron differentiation score", "setting": "ReNCell VM [2]; library: Tocriscreen", "value": "inactive: 0"}]}, {"smiles": "OCc1cnc[nH]1", "note": "[4-Imidazolemethanol hydrochloride]", "values": [{"measurement": "neuronal differentiation score", "setting": "ReNCell VM [1]; library: LOPAC", "value": "inactive: 0"}, {"measurement": "dopaminergic neuron differentiation score", "setting": "ReNCell VM [2]; library: LOPAC", "value": "inactive: 0"}]}, {"smiles": "C[C@H]1CC[C@]2(NC1)O[C@H]1C[C@H]3[C@@H]4CC[C@H]5C[C@@H](O[C@@H]6O[C@H](CO)[C@H](O[C@@H]7O[C@H](CO)[C@@H](O)[C@H](O[C@@H]8OC[C@@H](O)[C@H](O)[C@H]8O)[C@H]7O[C@@H]7O[C@H](CO)[C@@H](O)[C@H](O)[C@H]7O)[C@H](O)[C@H]6O)CC[C@]5(C)[C@H]4CC[C@]3(C)[C@H]1[C@@H]2C", "note": "[Tomatine]", "values": [{"measurement": "neuronal differentiation score", "setting": "ReNCell VM [1]; library: Phytochemical", "value": "inactive: 0"}, {"measurement": "dopaminergic neuron differentiation score", "setting": "ReNCell VM [2]; library: Phytochemical", "value": "inactive: 0"}]}, {"smiles": "C[N+]1(C)C2CCC1CC(OC(=O)c1c[nH]c3ccccc13)C2", "note": "(stereo unspecified) [3-Tropanylindole-3-carboxylate methiodide]", "values": [{"measurement": "neuronal differentiation score", "setting": "ReNCell VM [1]; library: LOPAC", "value": "inactive: 0"}, {"measurement": "dopaminergic neuron differentiation score", "setting": "ReNCell VM [2]; library: LOPAC", "value": "inactive: 0"}]}, {"smiles": "CCC(N)C(O)c1ccc(O)c(O)c1", "note": "(stereo unspecified)", "values": [{"measurement": "neuronal differentiation score", "setting": "ReNCell VM [1]; library: Spectrum", "value": "inactive: 0"}, {"measurement": "dopaminergic neuron differentiation score", "setting": "ReNCell VM [2]; library: Spectrum", "value": "inactive: 0"}]}, {"smiles": "O[C@H]1[C@H](O)[C@@H](O)CN2CC[C@H](O)[C@H]12", "note": "[Castanospermine]", "values": [{"measurement": "neuronal differentiation score", "setting": "ReNCell VM [1]; library: Tocriscreen", "value": "inactive: 0"}, {"measurement": "dopaminergic neuron differentiation score", "setting": "ReNCell VM [2]; library: Tocriscreen", "value": "inactive: 0"}]}, {"smiles": "C=C[C@H]1CN2CC[C@H]1C[C@@H]2[C@@H](O)c1ccnc2ccccc12", "note": "[Cinchonine]", "values": [{"measurement": "neuronal differentiation score", "setting": "ReNCell VM [1]; library: Phytochemical", "value": "inactive: 0"}, {"measurement": "dopaminergic neuron differentiation score", "setting": "ReNCell VM [2]; library: Phytochemical", "value": "inactive: 0"}]}, {"smiles": "C#CCN[C@H](C)Cc1ccccc1", "note": "[R-(-)-Desmethyldeprenyl hydrochloride]", "values": [{"measurement": "neuronal differentiation score", "setting": "ReNCell VM [1]; library: LOPAC", "value": "inactive: 0"}, {"measurement": "dopaminergic neuron differentiation score", "setting": "ReNCell VM [2]; library: LOPAC", "value": "inactive: 0"}]}, {"smiles": "Cc1cc2c(C(C)C)c(O)c(O)c(C=O)c2c(O)c1-c1c(C)cc2c(C(C)C)c(O)c(O)c(C=O)c2c1O", "values": [{"measurement": "neuronal differentiation score", "setting": "ReNCell VM [1]; library: Spectrum", "value": "inactive: 0"}, {"measurement": "dopaminergic neuron differentiation score", "setting": "ReNCell VM [2]; library: Spectrum", "value": "inactive: 0"}]}, {"smiles": "COc1ccc2c3c1O[C@H]1C(=O)CC[C@@]4(O)C(C2)N(CC2CC2)CCC314", "note": "(single isomer, unassigned; (-)) [(-)-3-Methoxynaltrexone hydrochloride]", "values": [{"measurement": "neuronal differentiation score", "setting": "ReNCell VM [1]; library: LOPAC", "value": "inactive: 0"}, {"measurement": "dopaminergic neuron differentiation score", "setting": "ReNCell VM [2]; library: LOPAC", "value": "inactive: 0"}]}]}
